Experimental findings from article PMC11666572 are described below.

The chains behind the UniProt entries cited, without tags or fusion partners.
UniProt Q93008: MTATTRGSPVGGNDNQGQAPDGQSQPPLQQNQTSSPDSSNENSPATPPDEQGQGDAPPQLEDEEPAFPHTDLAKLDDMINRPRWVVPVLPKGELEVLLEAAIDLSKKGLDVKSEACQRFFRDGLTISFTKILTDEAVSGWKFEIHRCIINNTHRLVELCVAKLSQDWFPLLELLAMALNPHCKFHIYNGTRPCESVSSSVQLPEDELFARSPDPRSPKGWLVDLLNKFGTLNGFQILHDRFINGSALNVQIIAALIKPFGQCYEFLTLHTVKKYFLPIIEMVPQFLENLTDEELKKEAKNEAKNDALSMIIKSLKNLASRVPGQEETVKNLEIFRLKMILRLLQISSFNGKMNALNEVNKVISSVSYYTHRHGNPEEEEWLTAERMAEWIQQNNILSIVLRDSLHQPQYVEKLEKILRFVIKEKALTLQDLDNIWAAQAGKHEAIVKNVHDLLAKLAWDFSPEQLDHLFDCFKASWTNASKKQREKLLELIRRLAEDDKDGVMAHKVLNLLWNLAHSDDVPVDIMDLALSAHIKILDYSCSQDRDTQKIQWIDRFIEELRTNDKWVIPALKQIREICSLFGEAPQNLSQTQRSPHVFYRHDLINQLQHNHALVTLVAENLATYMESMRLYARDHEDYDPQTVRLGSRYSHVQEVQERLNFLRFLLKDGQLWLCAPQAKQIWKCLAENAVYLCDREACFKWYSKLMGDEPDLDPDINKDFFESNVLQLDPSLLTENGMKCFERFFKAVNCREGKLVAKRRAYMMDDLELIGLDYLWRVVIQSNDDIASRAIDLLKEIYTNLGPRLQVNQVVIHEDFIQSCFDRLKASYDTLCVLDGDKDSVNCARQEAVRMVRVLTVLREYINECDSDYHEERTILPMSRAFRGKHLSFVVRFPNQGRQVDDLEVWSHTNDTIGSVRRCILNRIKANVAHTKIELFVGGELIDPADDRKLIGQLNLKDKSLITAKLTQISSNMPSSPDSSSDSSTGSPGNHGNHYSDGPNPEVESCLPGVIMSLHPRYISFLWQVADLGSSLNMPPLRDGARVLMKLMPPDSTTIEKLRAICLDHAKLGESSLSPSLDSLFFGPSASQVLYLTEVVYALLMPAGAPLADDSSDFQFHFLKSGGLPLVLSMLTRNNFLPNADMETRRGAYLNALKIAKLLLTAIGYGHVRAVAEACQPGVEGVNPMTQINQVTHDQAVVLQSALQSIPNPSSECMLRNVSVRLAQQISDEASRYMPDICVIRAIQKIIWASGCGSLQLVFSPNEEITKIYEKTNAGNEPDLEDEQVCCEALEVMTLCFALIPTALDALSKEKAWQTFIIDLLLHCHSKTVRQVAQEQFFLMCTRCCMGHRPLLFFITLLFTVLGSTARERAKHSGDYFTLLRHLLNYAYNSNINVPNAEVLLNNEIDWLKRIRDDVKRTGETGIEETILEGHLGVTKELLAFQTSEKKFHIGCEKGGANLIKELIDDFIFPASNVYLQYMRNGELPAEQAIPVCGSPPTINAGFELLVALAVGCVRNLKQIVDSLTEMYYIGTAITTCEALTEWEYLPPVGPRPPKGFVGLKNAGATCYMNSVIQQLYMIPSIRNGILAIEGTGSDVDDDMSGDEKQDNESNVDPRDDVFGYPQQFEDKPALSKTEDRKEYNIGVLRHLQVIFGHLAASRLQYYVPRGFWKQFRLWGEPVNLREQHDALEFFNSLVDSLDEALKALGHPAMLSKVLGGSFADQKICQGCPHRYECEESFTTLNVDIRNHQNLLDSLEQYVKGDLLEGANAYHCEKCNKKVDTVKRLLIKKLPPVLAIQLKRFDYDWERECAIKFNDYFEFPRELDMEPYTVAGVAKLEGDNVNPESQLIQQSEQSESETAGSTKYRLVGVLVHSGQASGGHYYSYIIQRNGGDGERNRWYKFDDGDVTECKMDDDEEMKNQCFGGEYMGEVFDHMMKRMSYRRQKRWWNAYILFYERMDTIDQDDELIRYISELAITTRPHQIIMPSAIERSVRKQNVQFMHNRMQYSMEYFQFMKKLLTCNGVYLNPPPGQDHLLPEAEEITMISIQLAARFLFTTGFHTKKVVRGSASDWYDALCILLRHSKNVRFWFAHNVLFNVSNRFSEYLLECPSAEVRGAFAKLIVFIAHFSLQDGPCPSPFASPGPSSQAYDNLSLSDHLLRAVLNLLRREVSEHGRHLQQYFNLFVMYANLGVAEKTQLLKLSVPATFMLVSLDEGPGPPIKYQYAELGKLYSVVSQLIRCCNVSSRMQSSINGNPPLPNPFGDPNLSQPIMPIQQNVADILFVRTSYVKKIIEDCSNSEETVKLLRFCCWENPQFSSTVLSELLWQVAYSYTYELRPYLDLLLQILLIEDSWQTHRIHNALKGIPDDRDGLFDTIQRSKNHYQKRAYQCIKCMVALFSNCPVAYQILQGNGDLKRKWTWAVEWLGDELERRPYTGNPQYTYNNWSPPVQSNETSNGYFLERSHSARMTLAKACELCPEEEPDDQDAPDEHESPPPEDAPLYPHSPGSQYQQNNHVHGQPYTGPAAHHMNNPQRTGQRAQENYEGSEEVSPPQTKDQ

Positions count from the first letter of the chain named. Results are given in words; binding and its absence hold for the method and conditions named. Binding seen in cells or lysates may run through a third protein. Some results given as binding are weak or reduced against the parent protein; the word gives no strength. For some of these results: Tags and fused reporters may be left off the sequences shown.

Assay [1] has as its target T1, GST-OGT TPR domain (1-473 aa) (UniProt O15294).
T1 sequence: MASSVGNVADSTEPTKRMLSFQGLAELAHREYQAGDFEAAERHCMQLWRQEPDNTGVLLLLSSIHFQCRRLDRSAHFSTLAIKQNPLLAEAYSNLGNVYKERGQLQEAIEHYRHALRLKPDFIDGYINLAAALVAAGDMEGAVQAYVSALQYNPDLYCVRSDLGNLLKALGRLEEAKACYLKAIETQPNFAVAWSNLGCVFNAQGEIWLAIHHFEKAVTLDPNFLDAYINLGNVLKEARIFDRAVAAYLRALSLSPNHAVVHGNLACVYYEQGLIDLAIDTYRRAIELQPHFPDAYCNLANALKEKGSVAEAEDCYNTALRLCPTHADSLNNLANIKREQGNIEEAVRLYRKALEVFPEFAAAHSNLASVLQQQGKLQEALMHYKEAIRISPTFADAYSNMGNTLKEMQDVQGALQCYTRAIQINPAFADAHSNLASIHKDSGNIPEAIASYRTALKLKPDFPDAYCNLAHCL
Description: pull-down; GST-tagged OGT deletion mutants with HEK-293T cells; western blot for USP9X; only the target purified. For orientation: A western blot detects proteins with antibodies after separation by electrophoresis.

Assay [2] has as its target T2, Flag-OGT R348K (expressed in H1299 cells after knockdown of endogenous OGT) (UniProt O15294).
T2 sequence: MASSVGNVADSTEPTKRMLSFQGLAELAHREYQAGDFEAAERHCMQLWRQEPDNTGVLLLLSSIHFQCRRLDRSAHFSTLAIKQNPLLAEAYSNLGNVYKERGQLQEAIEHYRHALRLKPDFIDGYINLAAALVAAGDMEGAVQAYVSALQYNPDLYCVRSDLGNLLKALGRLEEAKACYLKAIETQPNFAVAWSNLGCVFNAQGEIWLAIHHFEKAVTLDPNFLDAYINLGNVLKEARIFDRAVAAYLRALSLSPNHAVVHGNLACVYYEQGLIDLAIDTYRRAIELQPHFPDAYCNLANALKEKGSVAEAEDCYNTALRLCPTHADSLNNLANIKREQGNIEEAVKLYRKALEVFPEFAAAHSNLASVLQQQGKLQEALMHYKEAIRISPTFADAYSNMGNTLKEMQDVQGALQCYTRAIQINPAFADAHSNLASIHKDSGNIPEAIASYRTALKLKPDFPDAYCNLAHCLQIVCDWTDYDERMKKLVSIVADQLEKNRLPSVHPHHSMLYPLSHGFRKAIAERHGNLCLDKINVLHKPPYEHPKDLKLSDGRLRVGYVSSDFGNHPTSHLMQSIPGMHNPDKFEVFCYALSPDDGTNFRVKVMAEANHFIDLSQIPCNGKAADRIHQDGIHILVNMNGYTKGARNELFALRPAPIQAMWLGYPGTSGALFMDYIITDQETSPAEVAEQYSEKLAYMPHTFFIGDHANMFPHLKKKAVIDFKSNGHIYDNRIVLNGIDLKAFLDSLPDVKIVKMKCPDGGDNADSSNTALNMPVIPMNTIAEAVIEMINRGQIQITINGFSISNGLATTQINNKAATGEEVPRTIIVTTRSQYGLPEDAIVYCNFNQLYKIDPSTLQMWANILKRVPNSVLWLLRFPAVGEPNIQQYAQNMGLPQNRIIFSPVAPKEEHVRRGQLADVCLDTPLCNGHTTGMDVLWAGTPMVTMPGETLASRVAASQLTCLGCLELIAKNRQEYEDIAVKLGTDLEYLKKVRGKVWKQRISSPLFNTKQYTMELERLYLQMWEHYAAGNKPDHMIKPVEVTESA
The experiment in a line: co-IP; anti-Flag antibody, H1299 cells transfected with Flag-OGT WT/R348K/R348F after knockdown of endogenous OGT; also with TP064 (CARM1 inhibitor) treatment for 24 h; western blot.

Assay [3] has as its target T3, Flag-OGT WT (expressed in H1299 cells after knockdown of endogenous OGT) (UniProt O15294).
T3 sequence: T2 sequence with K348R
The assay is described as above.

In assay [4] the target is T4, endogenous OGT in H1299 cells (human (endogenous in H1299)) (UniProt O15294).
T4 sequence: T2 sequence with K348R
Description: co-IP; endogenous co-IP with anti-OGT antibody in H1299 cells; A/G Magnetic Beads; western blot.

Consider “USP9X in HEK-293T cells (from UniProt Q93008 1-2554) (enzyme)”, for which, in assay [1], the binding entry is recorded as “binds”.
For “endogenous USP9X in H1299 cells (from UniProt Q93008 1-2554) (enzyme)”, the binding entry in assay [2], in assay [3] and in assay [4] was “binds” throughout.
